PubChem BioAssay AID1508588, Peter MacCallum Cancer Centre, 2020

- Purpose: 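Genome-wide search for knock-downs that heighten vemurafenib action in melanoma cells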 (primary screen)
- System: human WM266.4 melanoma cells (BRAF V600 mutant)
- Reagents: siRNA pool against human genes, 40 nM
- Time to read-out: 96 h from transfection to read-out
- Conditions: vemurafenib 300 nM (about IC25), added 48 h after transfection, for 48 h; comparison arm got DMSO vehicle only
- Measured: 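Ratios to non-targeting siRNA for cell gain, counted as DAPI nuclei after minus before drug and averaged over two replicates, and for absorbance-read medium lactate per cell; both binned into fold-change classes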
- Scale: cell gain with vemurafenib: higher = more cell gain than with non-targeting siRNA; lactate per cell with vemurafenib: higher = more lactate made per cell
- Hit rule: 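a knock-down counts as enhancing when its fold-change classes with vehicle and with vemurafenib, taken together, show a stronger drug effect on cell gain or lactate per cell; exact class pairs not stated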
- Calls: active = enhances vemurafenib effect; inactive = no enhancement seen
Shown is one part, drawn at random, of about 18,000 reagents tested. 790 of all reagents (4.4%) count as active. 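Calls rest on a combination of fold-change classes in drug and vehicle arms, not all shown here.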 The numbers tell different reagents against one gene apart. Reagent sequences are not shown.

no.	gene	reagent no.	cell gain with vemurafenib	lactate per cell with vemurafenib	Call
1	TXLNGY	1	1.19	0.6	inactive
2	TXLNGY	2	0.32	1.17	inactive
3	NUBP2	1	0.54	1.31	inactive
4	DORIP1	1	0.16	2.72	inactive
5	ACTL7B	1	0.37	0.99	inactive
6	ECI2	1	0.65	0.46	inactive
7	CCIN	1	0.95	0.51	inactive
8	CBY1	1	0.6	0.86	inactive
9	RBM42	1	0.17	1.13	inactive
10	TCIM	1	0.2	0.16	active
11	MKX	1	0.72	1.06	inactive
12	PPP2R3B	1	0.09	0.53	inactive
13	PRKD1	1	0.51	0.52	inactive
14	ARHGAP24	1	0.77	0.38	active
15	MLYCD	1	0.65	1.21	inactive
16	SCFD2	1	0.8	0.68	inactive
17	PCSK5	1	0.43	1.42	inactive
18	KRTAP19-6	1	0.28	0.86	inactive
19	ABCC2	1	0.67	0.66	inactive
20	RAB44	1	0.88	0.68	inactive
21	MARF1	1	0.67	0.76	inactive
22	EXOC3	1	0.6	0.84	inactive
23	SH3PXD2A	1	0.1	1.54	inactive
24	CKMT2	1	0.52	0.82	inactive
25	PAPPA	1	0.7	0.72	inactive
26	PGBDF	1	0.41	0.91	inactive
27	CORO7	1	0.23	1.48	inactive
28	MRC1	1	0.84	0.52	inactive
29	MRC1	2	0.88	0.62	inactive
30	SLC17A9	1	0.2	0.36	inactive
31	CNNM4	1	0.84	0.57	inactive
32	MSRB2	1	0.57	1.5	inactive
33	ZNF697	1	0.13	0.9	inactive
34	TOP1MT	1	0.52	1.71	inactive
35	TAPBPL	1	0.53	1.17	inactive
36	WWC1	1	0.52	0.88	inactive
37	SOX12	1	0.73	0.8	inactive
38	EZH2	1	0.71	0.8	inactive
39	TREX1	1	0.13	0.9	inactive
40	RPS16	1	-0.07	2.53	inactive
41	CFAP410	1	-0.01	1.86	inactive
42	SLC67A2	1	0.45	1.16	inactive
43	NQO1	1	0.45	1.72	inactive
44	NAPRT	1	0.6	1	inactive
45	CAB39L	1	0.49	0.2	inactive
46	CTR9	1	0.44	0.58	active
47	CFB	1	0.96	0.52	inactive
48	MALL	1	0.62	1.04	inactive
49	NAGA	1	0.42	1.46	inactive
50	GRAMD1C	1	0.33	0.15	active
51	TRIM6-TRIM34	1	1.06	0.6	inactive
52	RAB33A	1	0.2	0.28	inactive
53	SBDS	1	0.92	0.93	inactive
54	RASL10B	1	0.77	1.75	inactive
55	MT1A	1	0.79	0.72	inactive
56	HNRNPH1	1	0.63	0.64	inactive
57	UBQLN3	1	0.72	0.57	inactive
58	LMTK1	1	0.31	0.88	inactive
59	LRWD1	1	0.8	0.51	inactive
60	PARVB	1	0.55	0.9	inactive
61	FPR2	1	0.75	1.46	inactive
62	RPL10L	1	0.48	1.11	inactive
63	TPH1	1	1	0.57	inactive
64	CARTPT	1	0.3	1.56	inactive
65	FLYWCH2	1	-0.1	1.15	inactive
66	FAAP100	1	0.96	0.69	inactive
67	ARMC2	1	1.21	1.06	inactive
68	RTEL1	1	0.7	0.88	inactive
69	ITPRID1	1	0.45	1	inactive
70	LY6G6F	1	0.45	0.53	inactive
71	C6orf89	1	0.3	0.31	inactive
72	S1PR1	1	0.74	0.93	inactive
73	ISX	1	0.6	0.7	inactive
74	CCZ1B	1	0.88	1.1	inactive
75	MYBPH	1	0.72	1.01	inactive
76	TTC36	1	1.03	0.88	inactive
77	CARD16	1	0.69	0.97	inactive
78	PSMF1	1	0.18	1.52	inactive
79	OR1G1	1	0.29	0.97	inactive
80	ZNF57	1	1.06	0.74	inactive
81	GABRD	1	0.36	2.25	inactive
82	DLX6	1	0.28	2.17	inactive
83	MARCHF8	1	0.99	0.45	inactive
84	SELENOT	1	0.18	1.16	inactive
